Source: publication PMC6351033
These are yes or no findings as the source states them, for the method shown. Binding seen in cells or lysates may run through a third protein. Some results given as binding are weak or reduced against the parent protein; the word gives no strength.

By UniProt entry, the sequences of proteins in these tests, tags left out.
UniProt P26447: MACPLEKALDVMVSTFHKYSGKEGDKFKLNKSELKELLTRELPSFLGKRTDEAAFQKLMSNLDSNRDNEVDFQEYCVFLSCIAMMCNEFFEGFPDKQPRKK
UniProt P49682: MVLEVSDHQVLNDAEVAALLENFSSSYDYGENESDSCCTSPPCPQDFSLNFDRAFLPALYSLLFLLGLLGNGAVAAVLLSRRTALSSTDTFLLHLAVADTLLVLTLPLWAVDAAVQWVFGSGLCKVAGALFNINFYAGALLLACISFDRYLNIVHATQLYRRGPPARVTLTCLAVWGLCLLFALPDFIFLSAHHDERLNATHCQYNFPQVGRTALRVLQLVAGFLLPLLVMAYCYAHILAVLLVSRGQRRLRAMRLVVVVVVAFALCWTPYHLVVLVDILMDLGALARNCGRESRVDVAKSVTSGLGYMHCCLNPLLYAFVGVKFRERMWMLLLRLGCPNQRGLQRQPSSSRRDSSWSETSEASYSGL
UniProt P51681: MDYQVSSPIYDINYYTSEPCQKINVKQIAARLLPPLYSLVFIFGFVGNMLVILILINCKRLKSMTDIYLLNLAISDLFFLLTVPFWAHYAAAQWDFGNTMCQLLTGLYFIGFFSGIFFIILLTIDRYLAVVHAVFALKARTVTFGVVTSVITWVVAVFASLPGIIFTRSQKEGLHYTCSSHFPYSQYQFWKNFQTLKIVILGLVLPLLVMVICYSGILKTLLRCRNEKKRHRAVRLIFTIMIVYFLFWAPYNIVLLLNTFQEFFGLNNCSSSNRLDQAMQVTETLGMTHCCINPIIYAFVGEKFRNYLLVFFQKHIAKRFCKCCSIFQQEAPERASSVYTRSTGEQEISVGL

Target: Mts1 (S100A4), recombinant (UniProt P26447)
Test: pull-down; affinity chromatography: Mts1 conjugated to BrCN-Sepharose column; supernatant of PBMC solubilised in 50 mM Tris pH 7.5, 1% Triton X-100 (diluted 10 times) applied; bound proteins by 12% SDS-PAGE and Western blot with antibodies to CCR5 and CXCR3; only the target purified

Substance	binding
CXCR3 chemotactic receptor (from UniProt P49682 1-368)	binds
CCR5 chemotactic receptor (from UniProt P51681 1-352)	binds
